In patent US7956083B2, “Compounds” (Glaxo Group Limited, priority 2008, dated 2011):
Some of these results come from one statement about several compounds together.

By UniProt entry, the sequences of proteins in these tests, tags left out. Chains listed by the source or under a name are the forms on record and can include a tag or linker.
UniProt Q92731, with tags, fused parts or gaps: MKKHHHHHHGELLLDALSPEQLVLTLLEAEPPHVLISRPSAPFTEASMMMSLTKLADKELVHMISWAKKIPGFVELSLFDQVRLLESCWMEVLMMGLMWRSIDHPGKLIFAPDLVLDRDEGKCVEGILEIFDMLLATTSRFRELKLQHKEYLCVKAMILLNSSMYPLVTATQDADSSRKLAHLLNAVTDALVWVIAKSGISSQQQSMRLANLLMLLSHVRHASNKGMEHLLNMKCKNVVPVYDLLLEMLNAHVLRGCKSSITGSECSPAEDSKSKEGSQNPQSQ

These molecules were tested against human ER beta (Homo sapiens, UniProt Q92731) (assay: ER beta FP binding assay (fluorescence polarisation, Fluormone EL Red ligand)). Conditions: 6 nM ERbeta protein, 1.5 nM ER FP ligand, 3 hours at room temperature.
Protocol: Assay Buffer (AB) (50 mM MOPES pH 7.5, 50 mM NaF, 2.5 mM CHAPs), in deionized water, 5 mM 1,4 dithiothreitol (DTT) added on day of the experiment. The appropriate amount of AB was placed in a plastic tube, adding solid DTT before the assay was run. AB with DTT was distributed to plastic tubes. We have found use of plastic to be important vs glass. A final concentration of 6 nM ERbeta protein was added to the tube followed by gentle inversion. A final concentration of 1.5 nM ER FP ligand (Fluormone™ EL Red 200 nM in 20 mM Tris, 90% Methanol purchased from Invitrogen catalogue no P3030) was added to the same tube followed by gentle inversion. This was allowed to sit for 5-10 minutes before adding it to the 384 assay plate. Similar protocol was used for ERalpha with a final concentration of 4 nM ERalpha and 1.5 nM ER FP ligand.
384 plates containing test compounds dissolved in 100% DMSO at 1 mM were serially diluted (1:3) by a Beckman FX. Serial diluted test compounds were added, 0.1 μL, to the assay plates with a maximum final concentration of 10 uM. Once the assay plates were ready, 10 μL of the above reagents were added to the appropriate set of plates with the Thermo combi. These plates were then sealed and place at room temperature for 3 hours.
The plates were then placed on the Molecular Devices Analyst and counted (excitation 535 nm, emission 590 nm with a 561 Dichroic mirror). Data was normalized to control then fitted to a non-linear least squares algorithm (see below).
pIC50 Calculation y=a+((b−a)/(1+(10^x/10^c){circumflex over (0)}d)
The amino acid sequence of human ER beta used in this assay is […]

pIC50 in the ER beta FP binding assay, > 6:
Cc1cn(-c2ccc(O)c(F)c2)c2cccc(O)c12 [Example 2, 1-(3-Fluoro-4-hydroxyphenyl)-3-methyl-1H-indol-4-ol]
Oc1ccc(-n2ccc3c(O)c(F)cc(Br)c32)cc1F [Example 4, 7-bromo-5-fluoro-1-(3-fluoro-4-hydroxyphenyl)-1H-indol-4-ol]
Oc1cc(F)c(-n2ccc3c(O)cccc32)cc1F [Example 12, 1-(2,5-difluoro-4-hydroxyphenyl)-1H-indol-4-ol]
Oc1c(F)cc(-n2ccc3c(O)cccc32)cc1F [Example 11, 1-(3,5-difluoro-4-hydroxyphenyl)-1H-indol-4-ol]
Oc1ccc(-n2ccc3c(O)cccc32)cc1 [Example 14, 1-(4-hydroxyphenyl)-1H-indol-4-ol]
Oc1ccc(-n2ccc3c(O)c(F)ccc32)cc1F [Example 5, 5-fluoro-1-(3-fluoro-4-hydroxyphenyl)-1H-indol-4-ol]
Cc1cc2c(O)cccc2n1-c1ccc(O)c(F)c1 [Example 3, 1-(3-Fluoro-4-hydroxyphenyl)-2-methyl-1H-indol-4-ol]
CCc1cc(O)c2ccn(-c3ccc(O)c(F)c3)c2c1 [Example 6, 6-Ethyl-1-(3-fluoro-4-hydroxyphenyl)-1H-indol-4-ol]
N#Cc1cc(O)c2ccn(-c3ccc(O)c(F)c3)c2c1 [Example 8, 1-(3-Fluoro-4-hydroxyphenyl)-4-hydroxy-1H-indole-6-carbonitrile]
Oc1ccc(-n2ccc3c(O)cc(F)cc32)cc1 [Example 10, 6-fluoro-1-(4-hydroxyphenyl)-1H-indol-4-ol]
Oc1ccc(-n2ccc3c(O)cccc32)cc1F [Example 1, 1(3-Fluoro-4-hydroxyphenyl)-1H-indol-4-ol]
Oc1ccc(-n2ccc3c(O)cc(F)cc32)cc1F [Example 9, 6-Fluoro-1-(3-fluoro-4-hydroxyphenyl)-1H-indol-4-ol]
Oc1ccc(-n2ccc3c(O)ccc(Cl)c32)cc1F [Example 7, 7-Chloro-1-(3-fluoro-4-hydroxyphenyl)-1H-indol-4-ol]
Oc1ccc(-n2ccc3c(O)cccc32)c(F)c1F [Example 13, 1-(2,3-difluoro-4-hydroxyphenyl)-1H-indol-4-ol]
